Laboratory results: PubChem BioAssay AID1259281 (Sanger Institute, 2017)
Aim: 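Screen kinases and frequently colorectal-mutated genes for lethal knock-downs and drug partners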 (primary screen). Cell system: human COLO678 colorectal cancer cell line. Reagents: siRNA pool against human genes. Conditions: anchor drugs at fixed doses: BYL719 1 µM, cetuximab 5 µg/ml or trametinib 10 nM; DMSO vehicle for the siRNA-alone arm. Measurement: 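Cell viability compared with non-targeting pool wells, averaged over replicates; knock-down-alone effect also as robust z-score; synergy scores set knock-down plus drug against expected joint effect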. Reading the numbers: robust z-score, siRNA alone: higher = more viable cells; strongly negative means essential; viability, siRNA alone: higher = more surviving cells; synergy score with BYL719: higher = stronger synergistic killing with drug. Hit rule: 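Essential (knock-down alone) when the siRNA-alone robust z-score is below -3; otherwise no change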. Calls: active = essential (knock-down alone); inactive = no change.
Here is one part, drawn at random, of 794 reagents. 22 of them (2.8%) count as active. 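Calls rest on knock-down alone only; drug synergy scores play no part in them.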 Entries without a mark were called inactive. Viability is capped at 1. Not all columns of the deposit are shown. Reagent sequences are not shown. Not stated in the record: the amount of reagent, the time to read-out.

| gene | robust z-score, siRNA alone | viability, siRNA alone (fraction of control) | synergy score with BYL719 |
| --- | --- | --- | --- |
| ANKK1 | -0.316 | 0.975 | -0.00243 |
| EGFR | -0.715 | 0.962 | 0.0717 |
| LMTK1 | 0.473 | 1 | -0.0839 |
| DYRK4 | -0.515 | 0.969 | -0.0148 |
| RPS6KA6 | -0.178 | 0.979 | -0.111 |
| MYLK4 | -1.25 | 0.945 | -0.0998 |
| NME3 | 0.473 | 1 | 0.0108 |

2 of these entries, reformatted.
{"gene": "MYLK4", "robust z-score, siRNA alone": -1.25, "viability, siRNA alone (fraction of control)": 0.945, "synergy score with BYL719": -0.0998}
{"gene": "NME3", "robust z-score, siRNA alone": 0.473, "viability, siRNA alone (fraction of control)": 1, "synergy score with BYL719": 0.0108}

The list goes on.
| gene | robust z-score, siRNA alone | viability, siRNA alone (fraction of control) | synergy score with BYL719 |
| --- | --- | --- | --- |
| EPHA8 | 0.473 | 1 | -0.0498 |
| MAP2K1 | -0.763 | 0.961 | -0.119 |
| IDH2 | 0.473 | 1 | -0.00591 |
| CSNK1E | -2.31 | 0.912 | -0.121 |
| CLSPN | 0.473 | 1 | 0.0284 |
| IGF2R | 0.473 | 1 | -0.00807 |
| IRAK4 | 0.473 | 1 | -0.0275 |
| AK1 | -0.273 | 0.976 | -0.113 |
| NUCKS1 | 0.473 | 1 | -0.0919 |
| TAF1L | 0.473 | 1 | -0.0541 |
